These are yes or no findings as the source states them, for the method shown. Some binding calls cover weakened binding; strength is not graded here.
Biological target: T1, human MCAM expressed on CHO cells transfected with the full length human MCAM gene (human) (UniProt P43121)
T1 sequence: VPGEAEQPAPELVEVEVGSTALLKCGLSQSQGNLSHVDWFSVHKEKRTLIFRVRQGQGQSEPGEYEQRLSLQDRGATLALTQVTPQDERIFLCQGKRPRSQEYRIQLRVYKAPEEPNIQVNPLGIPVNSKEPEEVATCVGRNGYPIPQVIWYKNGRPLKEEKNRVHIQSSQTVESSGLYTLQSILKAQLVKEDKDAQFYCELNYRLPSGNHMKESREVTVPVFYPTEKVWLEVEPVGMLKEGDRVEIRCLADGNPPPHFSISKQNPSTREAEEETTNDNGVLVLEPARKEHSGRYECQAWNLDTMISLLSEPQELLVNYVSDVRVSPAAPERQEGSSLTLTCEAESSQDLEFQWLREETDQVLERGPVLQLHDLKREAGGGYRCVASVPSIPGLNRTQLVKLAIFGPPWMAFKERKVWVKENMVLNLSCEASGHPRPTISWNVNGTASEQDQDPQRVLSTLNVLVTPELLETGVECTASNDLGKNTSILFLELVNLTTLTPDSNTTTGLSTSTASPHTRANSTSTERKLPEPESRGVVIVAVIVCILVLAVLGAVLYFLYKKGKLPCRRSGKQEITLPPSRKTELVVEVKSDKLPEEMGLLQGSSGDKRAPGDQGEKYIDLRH
Experiment: cells expressing human MCAM

binding: binds
B1: rat anti-human MCAM monoclonal antibody clone 2107.4.10 (antibody, V domains shown)
VH: QVQLKESGPGLVQSSQTLSLTCTVSGFSLTSNGVSWVRQPPGKGLEWIAAISSGGSTYYNSAFKSRLSISRNTSKSQVLLKMNSLQTEDTGMYFCARHRPFYFDYWGQGVMVTVSS
VL: DIRVTQSPSLLSASVGDRVTLNCKGSQNIYKSLAWFRLKRGEAPKLLIYDANSLQTGIPSRFSGSGSGTDFTLTITSLQPEDVATYFCQQYYSGYTFGAGTKLELK

From patent WO2017208210A1
